Results deposited as PubChem BioAssay AID1259425 (University of Nebraska Medical Center, 2018).
The deposit covers about 14,000 reagents; shown is an unselected part. Reagent sequences are not shown. Not stated in the record: the time to read-out.

Assay: 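Compare each knockdown with KSR1 silencing using changes in marker transcripts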 (primary screen)
Cell system: HCT116 human colon cancer cells
Reagents: siRNA pool against human genes, 50 nM siRNA
Read-out: 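After 50 nM siRNA pool, branched-DNA assay measures six marker transcripts per well, minus blank, normalised to the geometric mean of two housekeeping transcripts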
Scale: BNIP3L mRNA: higher = more BNIP3L transcript after knockdown; NDRG1 mRNA: higher = more NDRG1 transcript after knockdown; BNIP3 mRNA: higher = more BNIP3 transcript after knockdown; ALDOC mRNA: higher = more ALDOC transcript after knockdown; ACSL5 mRNA: higher = more ACSL5 transcript after knockdown

no.	gene knocked down	BNIP3L mRNA, set 1	NDRG1 mRNA, set 1	BNIP3 mRNA, set 1	ALDOC mRNA, set 1	ACSL5 mRNA, set 1
1	IQCB1 (GeneID 9657)	0.0498	0.171	0.374	0.0374	0.185
2	SBNO1 (GeneID 55206)	0.0482	0.14	0.322	0.0302	0.118
3	TRPT1 (GeneID 83707)	0.0557	0.161	0.227	0.0644	0.177
4	ZNF624 (GeneID 57547)	0.119	0.256	0.476	0.0158	0.331
5	HS3ST3B1 (GeneID 9953)	0.0798	0.119	0.272	0.0222	0.169
6	POU6F2 (GeneID 11281)	0.0798	0.402	0.37	0.00855	0.234
7	MRPS2 (GeneID 51116)	0.178	0.67	0.367	0.0253	0.125
8	HOMER3 (GeneID 9454)	0.117	0.101	0.205	0.0435	0.148
9	CFH (GeneID 3075)	0.14	0.5	0.407	0.0313	0.156
10	ERG28 (GeneID 11161)	0.0844	0.281	0.214	0.0144	0.222
11	LMCD1 (GeneID 29995)	0.0943	0.0587	0.294	0.0313	0.138
12	PHTF1 (GeneID 10745)	0.0525	0.242	0.311	0.0146	0.209
13	CNOT7 (GeneID 29883)	0.0705	0.174	0.205	0.0274	0.0715
14	BSCL2 (GeneID 26580)	0.0806	0.377	0.429	0.0243	0.208
15	HAUS4 (GeneID 54930)	0.0558	0.235	0.329	0.0107	0.26
16	IL1RAP (GeneID 3556)	0.0528	0.197	0.281	0.0206	0.126
17	MYL7 (GeneID 58498)	0.0711	0.248	0.32	0.0138	0.119
18	GINS3 (GeneID 64785)	0.103	0.15	0.198	0.00794	0.172
19	CNOT8 (GeneID 9337)	0.05	0.276	0.363	0.00222	0.365
20	SP6 (GeneID 80320)	0.145	0.685	0.413	0.0643	0.356
21	NUCB1 (GeneID 4924)	0.122	0.226	0.276	0.0214	0.269
22	RBM8A (GeneID 9939)	0.249	0.334	0.404	0.295	0.123
23	REM1 (GeneID 28954)	0.0872	0.0989	0.36	0.0259	0.192
24	SPHK1 (GeneID 8877)	0.121	0.135	0.256	0.0126	0.203
25	MAP3K1 (GeneID 4214)	0.111	0.228	0.23	0.0111	0.218
26	HSF2 (GeneID 3298)	0.467	1.13	0.662	0.0205	0.261
27	IL4 (GeneID 3565)	0.0485	0.134	0.184	0.0229	0.0963
28	ANGPT2 (GeneID 285)	0.111	0.435	0.4	0.0225	0.222
29	COX8A (GeneID 1351)	0.0841	0.183	0.169	-0.00178	0.0663
30	SLC16A2 (GeneID 6567)	0.152	0.33	0.537	0.0214	0.392
31	FOXB1 (GeneID 27023)	0.199	0.214	0.414	0.0299	0.123
32	SOS2 (GeneID 6655)	0.0594	0.23	0.149	0.029	0.225
33	NEBL (GeneID 10529)	0.0952	0.166	0.266	0.0185	0.0769
34	HAO1 (GeneID 54363)	0.118	0.267	0.269	0.0341	0.155
